From patent US12364797B2, “Apparatus for removing chemotherapy compounds from blood” (Delcath Systems, Inc., priority 2011, dated 2025) come the findings set out here.

The structures appear in SMILES notation. Structures can show the parent of a compound that is named as a salt.

A short description of data set [1]: In vitro extraction efficiency, extracorporeal circuit with bovine blood.
Data set [2] in a line: In vivo extraction efficiency, porcine model of chemosaturation with percutaneous hepatic perfusion (CS-PHP). Conditions: 60 min hemofiltration, target flow 500 mL/min, hydrogel ratio 25. More on the design: species or system Yorkshire Cross pigs.

For the compound `COc1cccc2c1C(=O)c1c(O)c3c(c(O)c1C2=O)C[C@@](O)(C(=O)CO)C[C@@H]3O[C@H]1C[C@H](N)[C@H](O)[C@H](C)O1` [Doxorubicin HCl, doxorubicin hydrochloride], the “Efficiency (%) Average” value in data set [1] (dose 90 mg, flow rate per cartridge 250 ml/min, hydrogel ratio 25:1, sample size 2) stood at 96.4%; in data set [1] (dose 150 mg, flow rate per cartridge 400 ml/min, hydrogel ratio 25:1, sample size 2), 96.9%; in data set [1] (dose 150 mg, flow rate per cartridge 400 ml/min, hydrogel ratio 25:1, sample size 5), 95.4%. The “Chemotherapeutic Removal Efficiency (%) Average ± Standard Deviation” value in data set [2] (Study 4, pigs n=5, dose 152 mg, phenylephrine, bicarbonate, dextrose saline) worked out at 71.4 ± 5.1%.
With `NC(Cc1ccc(N(CCCl)CCCl)cc1)C(=O)O` (centres unmarked) [Melphalan HCl, 2-amino-3-[4-[bis(2-chloroethyl)amino]phenyl]-propanoic acid], the “Efficiency (%) Average” value stood at 99.1% in data set [1] (dose 110 mg, flow rate per cartridge 250 ml/min, hydrogel ratio 25:1, sample size 6) and 97.2% in data set [1] (dose 110 mg, flow rate per cartridge 500 ml/min, hydrogel ratio 25:1, sample size 36). The “Chemotherapeutic Removal Efficiency (%) Average ± Standard Deviation” value in data set [2] (Study 1, pigs n=6, dose 220 mg, no phenylephrine, no bicarbonate) was 98.5 ± 0.5%; in data set [2] (Study 2, pigs n=5, dose 209 mg, phenylephrine and bicarbonate), 96.3 ± 0.3%; in data set [2] (Study 3, pigs n=10, dose 220 mg, phenylephrine and bicarbonate), 97.5 ± 0.5%.
For the compound `CC[C@@]1(O)C(=O)OCc2c1cc1n(c2=O)Cc2cc3c(CN(C)C)c(O)ccc3nc2-1` [Topotecan, topotecan], the “Efficiency (%) Average” value in data set [1] (doses 6.25, 12.5, 18.75 mg, flow rate per cartridge 250 ml/min, hydrogel ratio 25:1, sample size 3) is given as 90.3%; in data set [1] (doses 6.25, 12.5, 18.75 mg, flow rate per cartridge 500 ml/min, hydrogel ratio 25:1, sample size 3) it was 84.3%.
